# Results taken from publication doi:10.1101/2024.05.10.593590.
# Experiments:
# U(702-761) (human) = biological target: T1, U(702-761) (human) (UniProt Q00839); assay: fluorescence anisotropy; conditions: K+, unsaturated curve; residues 702-761
# T1 sequence (looked up): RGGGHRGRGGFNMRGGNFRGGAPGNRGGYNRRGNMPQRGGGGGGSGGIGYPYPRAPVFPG
# U(702-745) (human) = biological target: T2, U(702-745) (human) (UniProt Q00839); assay: fluorescence anisotropy; conditions: K+, unsaturated curve; residues 702-745
# T2 sequence (looked up): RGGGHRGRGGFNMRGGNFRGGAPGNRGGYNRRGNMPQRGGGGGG
# [1] = biological target: T3, RGG1 (minimal first RGG/RG motif) (human) (UniProt Q00839); assay: fluorescence anisotropy; conditions: for Kd: described as significantly weaker
# T3 sequence (looked up, limits assumed): T2 sequence (looked up)
# [2] = biological target: T3, RGG1 (minimal first RGG/RG motif) (human); assay: EMSA; conditions: higher-order complex only
Sequence,Kd (U(702-761) (human)) [µM],Kd (U(702-745) (human)) [µM],Kd ([1]; K+) [µM],binding result [2],further results
GAAGCUCACGCCGCUGGCAGCAAACCCGAUCCAGUUCCACUCGCCUCCGAGCGCGCUCCCGGUGCGCGCGCGCGCCCCCGCGUGACCCCCCCUUCCCUUCCCUUCCCUUCCCUCCCCUCCCUC [Antisense Syncrip],> 21,> 26,–,–,–
GGCUACACCAUUAGGAUGUCCUGAUCCAACAUCGAGGUCGUAAACCCUAUUGUCAAUAUGGACUCUAGAAUAGGAUUGCGCUGUUAUCCCUAGGGUAACUUGUUCCGUUGAUCAAAUUAUUGGGUCAAUAUAUGUAUAG [Antisense MTRNR2L6],> 9,> 13,–,–,–
GCUAUACAUAUAUUGACCCAAUAAUUUGAUCAACGGAACAAGUUACCCUAGGGAUAACAGCGCAAUCCUAUUCUAGAGUCCAUAUUGACAAUAGGGUUUACGACCUCGAUGUUGGAUCAGGACAUCCUAAUGGUGUAGC [MTRNR2L6],> 11,> 13,–,–,–
GGAGCUGCGGUGUGGAAGGAGUGGUCGGGUUGCGCAGCG [SC1],–,–,–,–,"binding result ([1]; K+, first transition, value only in figure): binds; binding signal (fold weaker than K+) ([1]; Li+ instead of K+, text says FMRP peptide, Fig 4 legend says RGG1): > 300"
GGGGGUCACGCGGGGGCGCGCGCGCGCACCGGGAGCGCGCUCGGAGGCGAGUGGAACUGGAUCGGGUUUGCUGCCAGCGGCGUGAGCUUC [Syncrip ΔG-quad],–,–,> 10,binds more weakly,–
GAGCCACCCCACCCAACCCAACCCAACCCAACCGGGGGUCACGCGGGGGCGCGCGCGCGCACCGGGAGCGCGCUCGGAGGCGAGUGGAACUGGAUCGGGUUUGCUGCCAGCGGCGUGAGCUUC [Syncrip GtoC],–,–,> 10,binds more weakly,–

# Tags and fusion partners may be left off the protein sequences shown. For part of these data: Construct, isoform or probe ends are uncertain for at least one entry. For part of these data: The comparison behind a weaker result is the experiment's own reference, which may not be listed here. For part of these data: At least one verdict was read from the data and is not stated in words by the source. For part of these data: Whether high values mean tight binding is not given here for every scale.
